# Experimental data taken from the supplement of paper PMC12873370.
# “And” between values parts separate entries of the source, which are not always exact repeats. Equal entries are not always repeated. This is one part of the list. Single values are uncertain, as repeats are few or missing.
# Experiments:
# [1] = system: MEPP (mouse ovarian epithelium Trp53/Pten KO); experiment: cell viability relative to untreated (fraction); higher = less growth inhibition; details: 5 µM; 3 days
# [2] = system: PREPP (mouse prostate epithelium Trp53/Pten KO); experiment: as above; details: 5 µM; 3 days
SMILES,cell viability [1],cell viability [2]
O=C(O)c1cc(=O)c2ccccc2[nH]1,0.93,0.974
Oc1cc(O)c2c(c1)O[C@H](c1cc(O)c(O)c(O)c1)[C@H](O)C2,0.842,1.31
CC(C)=CCCC(C)(O)C1CCC2(C)C1C(O)CC1C3(C)CCC(O)C(C)(C)C3CCC12C (centres undefined),0.975,0.909
COc1cc2c(cc1OC)[C@@H](Cc1ccc(O)c(Oc3cc4c(cc3OC)CCN(C)[C@@H]4Cc3ccc(O)cc3)c1)N(C)CC2,1.07,0.977
NC(=O)Cc1c[nH]c2ccccc12,1.07,1.06
OC[C@H]1O[C@@H](O[C@H]2[C@H](O)[C@@H](O)[C@H](O)O[C@@H]2CO)[C@H](O)[C@@H](O)[C@H]1O,1.1,0.919
NCCCCNCCCN,1.14 and 0.797,0.954 and 1.01
O=C(O)C1(O)C[C@@H](O)C(O)[C@H](O)C1 (some centres undefined),1.12,0.932
CC(C)=CCOc1ccc(/C=C/C(=O)c2ccc(OCC=C(C)C)cc2OCC(=O)O)cc1,0.835,0.902
O=C(O)c1ccncc1,1.28,0.996
C/C=C(/C)C(=O)OC(C)(C)[C@@H]1Cc2c(ccc3ccc(=O)oc23)O1,1.26,1
C[C@@H]1O[C@@H](O[C@H]2[C@H](O[C@H]3CC[C@@]4(C)[C@@H](CC[C@]5(C)[C@@H]4CC=C4[C@@H]6CC(C)(C)CC[C@]6(C(=O)O[C@@H]6O[C@H](CO[C@@H]7O[C@H](CO)[C@@H](O)[C@H](O)[C@H]7O)[C@@H](O)[C@H](O)[C@H]6O)CC[C@]45C)[C@]3(C)CO)OC[C@H](O)[C@@H]2O)[C@H](O)[C@H](O[C@@H]2O[C@H](CO)[C@@H](O[C@@H]3O[C@H](CO)[C@@H](O)[C@H](O)[C@H]3O)[C@H](O)[C@H]2O)[C@H]1O,1.16,1.12

# At a glance, part of the list above.
SMILES,cell viability [1],cell viability [2]
CC(C)=CCCC(C)(O)C1CCC2(C)C1C(O)CC1C3(C)CCC(O)C(C)(C)C3CCC12C (centres undefined),0.975,0.909
COc1cc2c(cc1OC)[C@@H](Cc1ccc(O)c(Oc3cc4c(cc3OC)CCN(C)[C@@H]4Cc3ccc(O)cc3)c1)N(C)CC2,1.07,0.977
